One may read the pKd as the Kd on a negative log10 scale, so that one unit is a factor of ten.

pKd: −log10 of the molar value. Weaker means in comparison with the reference protein, sequence or condition of that experiment. Construct, isoform or probe ends are uncertain for at least one entry. Negatives hold for the conditions tested.

This data set concerns thrombin. The experiment in a line: SPR. As to conditions: purified native protein, protein details: immobilized by amine coupling on CM5 sensor chip.
[1] abbreviates: Kd not calculable, dissociation curve reaches a stable bound level, single-stranded ….
Where [2] appears, read: no specific response, single-stranded DNA.
The mark [3] stands for this setting: HBS-EP, 150 mM NaCl, pH 7.0, single-stranded DNA.

On to “AGCAGCACAGAGGTCAGATGGGATGGATTGGTTGGCGTCTGATAATGGTGCCTATGCGTGCTACCGTGAA [T_beads_re_apt.5]”, for which the binding result under setting [1] is on record as “binds”.

As to “AGCAGCACAGAGGTCAGATGGGGTGGGGTGGATTGGTTGGCGTTCCTGGACCTATGCGTGCTACCGTGAA [T_beads_apt.10]”, under setting [2], the binding result was “no binding”.

In the case of “AGCAGCACAGAGGTCAGATGTCTGGTTGGTGTGGTTGGGAGTTTTTTGATCCCTATGCGTGCTACCGTGAA [TBA_like_apt.1]”, the pKd (control containing the TBA 15 sequence, HBS-EP pH 7.0, single-stranded DNA) was 6.66.

On to “AGCAGCACAGAGGTCAGATGTGGATTGGTTGGATTGGGGGTGTGACTGTGCCTATGCGTGCTACCGTGAA [T_apt.9]”, for which the binding result under setting [2] was “no binding”.

Turning to “AGCAGCACAGAGGTCAGATGTCGGGTTGGATTGGTTGGCTTAAACTATGTCCTATGCGTGCTACCGTGAA [T_apt.10]”, under “single-stranded DNA”, the binding result is on record as “binds more weakly”.

In the case of “AGCAGCACAGAGGTCAGATGTGGGTCCGGGGTTGGGGGGGTGGCCGGGTCCCTATGCGTGCTACCGTGAA [T_beads_apt.9]”, under setting [2], the binding result is recorded as “no binding”.

Regarding “AGCAGCACAGAGGTCAGATGTTAGGGTTGGGAGGGTGGCTGACTAATGTACCTATGCGTGCTACCGTGAA [T_beads_apt.4]”, the binding result under setting [2] is “no binding”.

As for “AGCAGCACAGAGGTCAGATGGTTGGTTATGGTGGTTTTAGTGGGACTCGACCTATGCGTGCTACCGTGAA [T_beads_apt.7 (= T_beads_re_apt.2)]”, the pKd under setting [3] was 6.48.

On to “AGCAGCACAGAGGTCAGATGAAGGGGGTGGGGGTCGGGTGGCCTCACGATCCTATGCGTGCTACCGTGAA [T_beads_re_apt.4]”, for which, under setting [3], the pKd is 6.19. This pKd is 0.29 log units lower than that of the sequence before.

“AGCAGCACAGAGGTCAGATGATAGGATGGGTGGGTGGGTTCGTCAGTTACCTATGCGTGCTACCGTGAA [T_beads_apt.8]” had a pKd under setting [3] of 7.37.

In turn, “AGCAGCACAGAGGTCAGATGGGGGTGGATGTGGTATTTTAGTGGCGATCTCCTATGCGTGCTACCGTGAA [T_beads_re_apt.3]” gave a pKd under setting [3] of 6.02.

For “AGCAGCACAGAGGTCAGATGGTTTGGGTGGTTAGGTGTTGACCTGGGATGCCTATGCGTGCTACCGTGAA [T_apt.1 (= T_beads_apt.2, T_beads_re_apt.6)]”, where the note is “single-stranded DNA”, the binding result was “binds more weakly”.

As to “AGCAGCACAGAGGTCAGATGGTGTACTATTATGGTGTGGTTGGTATGGTTCCTATGCGTGCTACCGTGAA [T_apt.7]”, under setting [2], the binding result is listed as “no binding”.

In the case of “AGCAGCACAGAGGTCAGATGAAGAGGGTGGAGTGGTTGGCTTCACAATGGCCTATGCGTGCTACCGTGAA [T_beads_re_apt.1]”, the binding result under setting [1] is given as “binds”.

For the sequence “AGCAGCACAGAGGTCAGATGGGTTGGGTGGTGTGGGTAGTGATCCCTGTGCCTATGCGTGCTACCGTGAA [T_apt.8]”, under setting [2], the binding result is given as “no binding”.

For “AGCAGCACAGAGGTCAGATGGATGGTGTAGGTTGGGAGAGGCTCAGTGCCCTATGCGTGCTACCGTGAA [T_beads_apt.3]”, under setting [3], the negative-log Kd (pKd) is 6.78.

As to “AGCAGCACAGAGGTCAGATGACGGGGATGGGGGGGTGGAGGAGGCCTGTCCTATGCGTGCTACCGTGAA [T_beads_re_apt.10]”, the pKd (single kinetic analysis, very slow dissociation, not regenerated by 1 M NaCl, HBS-EP pH 7.0, single-stranded DNA) was 7.00.

The values are drawn from patent US20200332281.
